Test results: patent publication US20250333541A1, “ANTIBODY, AND DRUG CONJUGATE AND USE THEREOF” (EVOPOINT BIOSCIENCES CO., LTD., priority 2022, published 2025)
Results are given in words; binding and its absence hold for the method and conditions named. Some binding calls cover weakened binding; strength is not graded here.

How the values were obtained:
[1] = molecular target: cynomolgus monkey TF-His (cynomolgus monkey); test: BLI (ForteBio Octet)
[2] = molecular target: cynomolgus monkey TF-His (cynomolgus monkey); test: ELISA, plate coated with cynomolgus monkey TF-His, HRP anti-human IgG, OD450
[3] = molecular target: cynomolgus monkey TF-His (cynomolgus monkey); test: ELISA, plate coated with c.TF-His

Measured: binding

B1: 2B12B10-hz1 (antibody, human IgG1, kappa, V domains shown)
VH: EVQLVESGGGLVQPGGSLRLSCAASGFAFSDSGMHWVRQAPGKGLEWVAYISRDSNTIYYADSVKGRFTISRDNAKNSLYLQMNSLRAEDTAVYYCGRRYYGDYFDYWGQGTLVTVSS
VL: DIVLTQSPATLSLSPGERATLSCRASQRVTNYLHWYQQKPGQSPRLLIKYASQSISGIPARFSGSGSGTDFTLTISSLEPEDFAVYFCQQSYNWPLTFGQGTKVEIKR
notes: Humanized IgG1 kappa
binds: all assays above

B2: 30G11B7-hz1 (antibody, human IgG1, kappa, V domains shown)
VH: EVQLVESGGGLVKPGGSLRLSCAASGFTFSDYGMFWVRQAPGKGLEWVAYISRGSTTIYYADSVKGRFTISRDNAKNSLYLQMNSLRAEDTAVYFCTRRYYGDYFDYWGQGTLVTVSS
VL: EIVLTQSPDFQSVTPKEKVTITCRASQSISNYLHWYQQKPDQSPKLLIKYASQSISGVPSRFSGSGSGTDFTLTINSLEAEDAATYFCQQSYNWPLTFGQGTKVEIKR
notes: Humanized IgG1 kappa
binds: all assays above

B3: 22F11H5-hz1 (antibody, human IgG1, kappa, V domains shown)
VH: QVQLVQSGAEVKQPGASVKVSCKASGYTFTTYWMHWVRQAPGQGLEWMGMIDPSDSYTTYAQKFQGRVTLTVDTSTSTAYMELSSLRSEDTAVYYCARGSGPGLFAYWGQGTLVTVSS
VL: DIQETQSPSSLSASVGDRVTITCRASQDIRNYLNWYQQKPGKAPKLLIYHTSRLQSGVPSRFSGSGSGTDYTLTISSLQPEDFATYYCQQGNMPPYTFGQGTKVEIKR
notes: Humanized IgG1 kappa
binds: all assays above

B4: 27H8H3-hz1 (antibody, human IgG1, kappa, V domains shown)
VH: QVQLVQSGAEVKKPGASVKVSCKASGYTFTTYWMHWVRQAPGQGLEWMGMIDPSDSYTSYAQKFQGRVTLTVDTSTSTAYMELSSLRSEDTAVYYCTRGSGPGLFAYWGQGTLVTVSS
VL: DIQETQSPSSLSASVGDRVTITCRASQGISNYLNWYQQKPGKAPKLLIYHTSRLHSGVPSRFSGSVSGTDFTLTISSLQPEDFATYFCQQGNTLPYTFGQGTKVEIKR
notes: Humanized IgG1 kappa
binds: all assays above
